Measurements: patent US4632940A, “N-substituted 1-(4'-alkylsulfonylphenyl)-2-amino-1,3-propanediols, pharmaceutical compositions containing them, having local anesthetic activity” (Zambon S.p.A., priority 1983, dated 1986)

Assay: in vivo
Settings: iv
Source text: Toxicity study in mouse has been performed by intravenous administration. The Compounds have been administered as hydrochloride. After treatment the animals have been observed for 24 hrs.
In the same Table is also shown the Therapeutic Index which has been calculated as ratio between DL50 and ED50.

CCN(CC)CC(=O)Nc1c(C)cccc1C [Lidocaine, reference compound]
LD50 at 24 h (mouse, administered as hydrochloride, observed for 24 hrs): 140 µmol/kg
selectivity ratio (ratio of LD50 (mouse, i.v.) to ED50 (guinea pig local infiltration), read-out: Therapeutic Index LD50/ED50): 0.28
